Test results as given in paper PMC13378934.
These are yes or no findings as the source states them, for the method shown. In cells and extracts the contact can be indirect. Here binding means that the protein was enriched with, or labelled near, the bait; the list need not be complete. Sequences can lack the tags named with a protein.

Amino acid sequences for entries named in this document (tags omitted).
UniProt Q9JMH9: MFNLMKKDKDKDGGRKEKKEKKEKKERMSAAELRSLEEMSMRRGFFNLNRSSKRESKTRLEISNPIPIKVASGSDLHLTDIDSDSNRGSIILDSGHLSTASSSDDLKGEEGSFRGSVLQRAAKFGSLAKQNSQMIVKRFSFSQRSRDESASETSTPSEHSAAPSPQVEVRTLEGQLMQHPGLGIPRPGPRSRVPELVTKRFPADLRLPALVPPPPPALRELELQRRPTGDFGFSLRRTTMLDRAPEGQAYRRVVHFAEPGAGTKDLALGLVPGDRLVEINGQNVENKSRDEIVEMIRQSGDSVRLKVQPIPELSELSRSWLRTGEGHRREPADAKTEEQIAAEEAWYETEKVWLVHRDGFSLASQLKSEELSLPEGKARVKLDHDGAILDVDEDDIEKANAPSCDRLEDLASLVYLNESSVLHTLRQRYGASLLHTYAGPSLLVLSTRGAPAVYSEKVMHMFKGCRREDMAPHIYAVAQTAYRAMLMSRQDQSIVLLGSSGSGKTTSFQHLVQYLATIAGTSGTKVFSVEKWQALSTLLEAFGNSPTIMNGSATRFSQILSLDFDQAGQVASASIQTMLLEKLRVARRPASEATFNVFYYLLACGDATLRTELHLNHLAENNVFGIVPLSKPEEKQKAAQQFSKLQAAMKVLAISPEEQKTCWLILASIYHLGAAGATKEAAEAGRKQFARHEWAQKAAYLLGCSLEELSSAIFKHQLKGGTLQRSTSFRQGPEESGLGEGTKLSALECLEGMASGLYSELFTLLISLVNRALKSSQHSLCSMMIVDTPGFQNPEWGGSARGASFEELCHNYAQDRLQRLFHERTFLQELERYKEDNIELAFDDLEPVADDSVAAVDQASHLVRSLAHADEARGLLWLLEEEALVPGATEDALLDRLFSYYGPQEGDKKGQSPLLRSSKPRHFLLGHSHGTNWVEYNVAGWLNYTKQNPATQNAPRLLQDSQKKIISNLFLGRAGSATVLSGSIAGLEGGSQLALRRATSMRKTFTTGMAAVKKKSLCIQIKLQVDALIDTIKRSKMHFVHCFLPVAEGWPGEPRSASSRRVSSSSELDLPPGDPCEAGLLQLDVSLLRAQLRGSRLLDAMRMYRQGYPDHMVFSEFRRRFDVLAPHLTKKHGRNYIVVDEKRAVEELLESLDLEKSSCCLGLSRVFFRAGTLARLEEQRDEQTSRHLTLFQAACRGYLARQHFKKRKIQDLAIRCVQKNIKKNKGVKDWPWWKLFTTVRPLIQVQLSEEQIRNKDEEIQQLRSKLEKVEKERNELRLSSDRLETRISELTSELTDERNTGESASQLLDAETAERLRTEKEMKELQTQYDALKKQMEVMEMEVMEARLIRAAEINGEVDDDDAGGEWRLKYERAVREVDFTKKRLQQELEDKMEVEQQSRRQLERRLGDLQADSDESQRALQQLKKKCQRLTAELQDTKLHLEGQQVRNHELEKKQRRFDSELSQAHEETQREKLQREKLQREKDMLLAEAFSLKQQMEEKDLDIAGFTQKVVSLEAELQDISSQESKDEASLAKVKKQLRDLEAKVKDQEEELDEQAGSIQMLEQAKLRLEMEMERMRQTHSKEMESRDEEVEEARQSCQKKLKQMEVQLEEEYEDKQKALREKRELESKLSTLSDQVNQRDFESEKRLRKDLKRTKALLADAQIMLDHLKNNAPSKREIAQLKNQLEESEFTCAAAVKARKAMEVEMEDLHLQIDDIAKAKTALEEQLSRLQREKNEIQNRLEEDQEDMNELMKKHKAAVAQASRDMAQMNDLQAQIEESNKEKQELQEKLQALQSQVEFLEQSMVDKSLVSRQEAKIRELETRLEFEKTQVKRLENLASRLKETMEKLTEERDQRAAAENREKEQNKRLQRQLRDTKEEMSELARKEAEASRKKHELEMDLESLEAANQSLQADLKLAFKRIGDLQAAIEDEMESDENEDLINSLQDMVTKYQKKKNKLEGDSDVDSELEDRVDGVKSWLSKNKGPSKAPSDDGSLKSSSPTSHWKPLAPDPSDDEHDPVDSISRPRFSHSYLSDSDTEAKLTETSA

T1: Flag-CARD19 (caspase activation and recruitment domain 19) (UniProt Q9D1I2)
T1 sequence: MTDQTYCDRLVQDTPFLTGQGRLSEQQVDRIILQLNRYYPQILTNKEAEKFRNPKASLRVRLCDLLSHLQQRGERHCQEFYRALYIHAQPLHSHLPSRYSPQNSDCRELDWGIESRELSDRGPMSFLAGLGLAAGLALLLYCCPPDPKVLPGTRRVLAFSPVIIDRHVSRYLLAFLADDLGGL


These molecules were tested against T1, Flag-CARD19 (caspase activation and recruitment domain 19) (assay: affinity purification with mass spectrometry; co-immunoprecipitated proteins from BV2 cells, SDS-PAGE, Coomassie staining, nano-HPLC and Q-Exactive MS, MaxQuant search of the UniProt Mus musculus database; precipitating antibody not stated for this experiment).

Row | binding | Molecule
1 | binds | Myo18a (from UniProt Q9JMH9 1-2050)
2 | binds | mitochondrial inner membrane protein 19 (MIC19) (protein, UniProt Q9CRB9 1-227) MGGTASTRRVTFEADENENITVVKGIRLSENVIDRMKESSPSGSKSQRYSSVYGASVSDEDLKRRVAEELALEQAKKESEHQRRLKQARDLERERAAANEQLTRAVLRERISSEEERMKAKHLARQLEEKDRVMRKQDAFYKEQLARLEERSSEFYKVTTEEYQKAAEEVEAKFKRYEYHPVCADLQTKILQCYRQNTQQTLSCSALASQYMHCVNHAKQSMLEKGG
3 | binds | sorting and assembly machinery component 50 (SAMM50) (protein, UniProt Q8BGH2 1-469) MGTVHARSLEPLPSSGTDFGALGEEAEFVEVEPEAKQEILENKDVVVQHVHFDGLGRTKDDIIICEIGEVFKAKNLIEVMRRSHEAREKLLRLGIFRQVDVLIDTCHGEDALPNGLDVTFEVTELRRLTGSYNTMVGNNEGSMVLGLKLPNLLGRAEKVTFQFSYGTKETSYGLSFFKPQPGNFERNFSVNLYKVTGQFPWSSLRETDRGVSAEYSFPLWKTSHTVKWEGVWRELGCLSRTASFAVRKESGHSLKSSLSHAMVIDSRNSSILPRRGALFKVNQELAGYTGGDVSFIKEDFELQLNKPLALDSVFSTSLWGGMLVPIGDKPSSIADRFYLGGPTSVRGFSMHSIGPQSEGDYLGGEAYWAGGLHLYTPLPFRPGQGGFGELFRTHFFLNAGNLCNLNYGEGPKAHIRKLAECIRWSYGAGVVLRLGNIARLELNYCIPMGVQGGDRICDGVQFGAGIRFL
